Laboratory results published in publication PMC6683124.
No constants are given. Whether binding was seen depends on the method and setting. Binding seen in cells or lysates may run through a third protein. Binding calls can cover weak binding; strength is not graded here.

Target: T1, bicaudal D homolog 1 (human (endogenous in UCB-MSCs)) (UniProt Q96G01)
T1 sequence: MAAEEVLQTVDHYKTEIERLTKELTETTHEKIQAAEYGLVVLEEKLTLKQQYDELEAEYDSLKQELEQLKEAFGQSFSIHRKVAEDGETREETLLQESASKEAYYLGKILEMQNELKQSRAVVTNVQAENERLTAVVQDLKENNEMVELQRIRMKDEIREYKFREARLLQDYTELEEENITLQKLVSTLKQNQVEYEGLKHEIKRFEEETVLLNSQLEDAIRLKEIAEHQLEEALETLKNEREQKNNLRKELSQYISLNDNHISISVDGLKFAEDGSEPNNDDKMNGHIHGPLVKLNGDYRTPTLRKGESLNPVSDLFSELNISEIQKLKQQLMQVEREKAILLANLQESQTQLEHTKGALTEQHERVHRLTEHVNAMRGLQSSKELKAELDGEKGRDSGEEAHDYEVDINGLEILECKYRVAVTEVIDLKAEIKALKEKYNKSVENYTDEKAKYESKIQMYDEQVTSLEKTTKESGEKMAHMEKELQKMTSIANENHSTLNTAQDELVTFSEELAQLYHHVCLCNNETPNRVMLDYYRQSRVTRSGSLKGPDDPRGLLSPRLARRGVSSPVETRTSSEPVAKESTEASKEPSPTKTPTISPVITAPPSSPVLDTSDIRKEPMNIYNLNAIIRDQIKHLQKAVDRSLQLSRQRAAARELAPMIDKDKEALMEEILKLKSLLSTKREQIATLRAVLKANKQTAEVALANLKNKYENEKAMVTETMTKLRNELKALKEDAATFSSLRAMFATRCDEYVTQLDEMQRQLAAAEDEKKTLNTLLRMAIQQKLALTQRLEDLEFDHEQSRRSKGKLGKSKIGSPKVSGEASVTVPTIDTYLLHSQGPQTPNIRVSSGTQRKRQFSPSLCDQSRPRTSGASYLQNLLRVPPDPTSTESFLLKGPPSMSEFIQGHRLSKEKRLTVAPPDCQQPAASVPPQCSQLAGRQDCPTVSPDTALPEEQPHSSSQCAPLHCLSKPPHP
Assay: co-IP; UCB-MSC lysate (20 mM Tris-HCl pH 8.0, 137 mM NaCl, 1% Nonidet P-40, 2 mM EDTA) incubated 6 h at 4°C with BICD1 or rabbit IgG antibodies on protein G magnetic beads; blotted for HIF1α and Dynein IC; cells with or without cycloheximide (10 μM) pretreatment and cP1P (1 μM) for 24 h

binding: binds
Substance: dynein intermediate chain (human (endogenous in UCB-MSCs))
